We go through one sequence from doi:10.1101/2023.01.16.524289.

Sequences of proteins named here, by UniProt entry; tags and fusion partners are left off.
UniProt P70372, whole entry: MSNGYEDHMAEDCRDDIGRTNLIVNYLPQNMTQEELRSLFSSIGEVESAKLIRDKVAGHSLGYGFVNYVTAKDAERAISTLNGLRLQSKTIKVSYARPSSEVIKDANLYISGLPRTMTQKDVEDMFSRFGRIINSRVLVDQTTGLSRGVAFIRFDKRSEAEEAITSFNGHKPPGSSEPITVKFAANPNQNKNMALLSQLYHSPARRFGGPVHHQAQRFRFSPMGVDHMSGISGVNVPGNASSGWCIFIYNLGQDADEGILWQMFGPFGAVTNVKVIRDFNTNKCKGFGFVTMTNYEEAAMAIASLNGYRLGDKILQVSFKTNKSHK

Construct, isoform or probe ends are uncertain for at least one entry. Where cells or extracts were used, other partners may take part.

In this data set the target is HuR (endogenous) (Mus musculus (RAW264.7 cells)) (UniProt P70372). The experiment in a line: pull-down, immunoblot. The conditions noted are these: DMSO-treated cells, about 50% lower after 10 uM TM7nox; protein in an extract.

In the case of “AUUAUUUAUUAUUUAUUUAUUAUUUA [Bi-TNF ARE probe (26 nt)]”, the binding result is reported as “binds”.
